Reference: PMC6995400
No constants are given. Whether binding was seen depends on the method and setting. Binding seen in cells or lysates may run through a third protein. Some entries that bind do so weakly or less than the wild type.

Protein sequences, listed by entry. Tags and fused reporters are not part of them.
UniProt Q15717: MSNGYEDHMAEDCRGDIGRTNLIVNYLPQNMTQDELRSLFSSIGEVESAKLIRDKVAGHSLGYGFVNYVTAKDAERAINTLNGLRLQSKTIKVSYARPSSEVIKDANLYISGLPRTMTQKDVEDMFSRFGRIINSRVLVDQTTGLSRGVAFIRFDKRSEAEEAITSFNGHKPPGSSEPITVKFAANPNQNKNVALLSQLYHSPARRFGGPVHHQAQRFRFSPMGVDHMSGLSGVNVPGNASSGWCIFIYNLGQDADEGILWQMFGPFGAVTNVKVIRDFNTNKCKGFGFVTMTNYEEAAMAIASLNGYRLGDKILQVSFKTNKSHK
UniProt Q00534: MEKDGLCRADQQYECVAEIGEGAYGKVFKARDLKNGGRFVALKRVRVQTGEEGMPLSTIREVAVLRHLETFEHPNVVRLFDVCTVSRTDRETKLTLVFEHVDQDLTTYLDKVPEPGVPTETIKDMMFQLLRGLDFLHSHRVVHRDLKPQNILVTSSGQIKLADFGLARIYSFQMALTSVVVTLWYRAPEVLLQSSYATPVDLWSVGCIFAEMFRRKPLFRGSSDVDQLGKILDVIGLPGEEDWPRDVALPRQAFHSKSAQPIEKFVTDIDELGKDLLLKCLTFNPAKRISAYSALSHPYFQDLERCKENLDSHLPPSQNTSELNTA

Columns and labels:
[1] = molecular target: ELAV-Like Protein 1 (HuR) (human (endogenous in Ca Ski)) (UniProt Q15717); assay: co-IP; clarified cell lysates incubated overnight with IgG, anti-HuR or anti-CDK6 antibody, bead A/G 2 hours, washes with PBS with 1% glycerol, Western blot; cells with and without p16 silencing
[2] = molecular target: Cyclin-Dependent Kinase 6 (CDK6) (human (endogenous in Ca Ski)) (UniProt Q00534); assay: as above

Substance | binding [1] | binding [2]
Cyclin-Dependent Kinase 6 (CDK6) (from UniProt Q00534 1-326) (enzyme) | binds | –
ELAV-Like Protein 1 (HuR) (from UniProt Q15717 1-326) | – | binds
